In paper PMC3368247 (Frontiers in Pharmacology, 2012) one finds IC50 data, which are given here for one compound.

This experiment addresses T1, Cx50 GJ channels (Mus musculus, UniProt P28236).
T1 sequence (P28236 1-440): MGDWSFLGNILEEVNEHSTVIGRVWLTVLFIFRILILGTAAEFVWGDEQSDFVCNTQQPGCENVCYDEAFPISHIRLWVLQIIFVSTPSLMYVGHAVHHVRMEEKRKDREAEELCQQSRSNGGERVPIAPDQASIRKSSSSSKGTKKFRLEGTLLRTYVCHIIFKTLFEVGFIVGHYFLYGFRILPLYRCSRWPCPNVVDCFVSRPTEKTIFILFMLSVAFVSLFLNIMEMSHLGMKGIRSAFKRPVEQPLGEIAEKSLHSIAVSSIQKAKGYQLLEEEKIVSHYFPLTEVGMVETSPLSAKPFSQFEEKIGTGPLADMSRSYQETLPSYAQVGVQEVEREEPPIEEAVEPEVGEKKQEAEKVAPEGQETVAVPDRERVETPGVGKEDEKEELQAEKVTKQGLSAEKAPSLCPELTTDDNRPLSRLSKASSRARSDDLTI
It is filed as cell-based.

pIC50: −log10 of the molar value.

As a reminder, the pIC50 is −log10 of the IC50, conventionally taken in molar units. `Clc1ccccc1C(c1ccccc1)(c1ccccc1)n1ccnc1` [Clotrimazole, reference compound] had a negative logarithm of the IC50 (pIC50) of 5.30.
